# PubChem BioAssay (NCATS)
# Some of the results follow. These are further read-outs of the screen, such as a control signal, another cell line or another target. No call is given for them. Most of these compounds were active or inconclusive in the main read-out, so they are no random draw. Potencies come from curve fits of mixed quality, noted in brackets.
# Assay: S16 Schwann cell PMP22 intronic element beta-lactamase assay (AID 624044)
# Settings: S16 rat Schwann cells, PMP22 element beta-lactamase FRET, 24 h; measured here: 460 nm blue channel
# Method in brief: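 Rat S16 Schwann cells with beta-Lac driven by a PMP22 intronic element, compound-treated 24 h at 37 °C. LiveBLAzer FRET B/G read: 460 nm normalized to potassium clavulanate vs DMSO; 535 nm FRET as viability; concentration-effect curves classified.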
row,Structure (SMILES),AC50
1,COc1cc(C(=O)N2CCCCCCC2)cc(OC)c1OC,"9.99 µM [rising, full curve, poor fit]"
2,c1ccc2c(c1)CCC[C@@H]2C1=NCCN1,"0.178 µM [falling, full curve, poor fit]"
3,Nc1nc(=O)n([C@@H]2CS[C@H](CO)O2)cc1F,"3.98 µM [falling, full curve, poor fit]"
4,CCCCCCOc1ccc(C(=N)N(CCCC)CCCC)c2ccccc12,"11.2 µM [falling, partial curve, poor fit]"
5,NS(=O)(=O)c1cc2c(cc1Cl)N[C@@H](CC1CCCC1)NS2(=O)=O,"2.39 µM [falling, full curve, poor fit]"
6,CCN(CC)CCC(=O)N1c2ccccc2Sc2ccc(Cl)cc21,"25.1 µM [rising, single point]"
7,NS(=O)(=O)c1cc2c(cc1C(F)(F)F)N[C@H](Cc1ccccc1)NS2(=O)=O,"0.134 µM [falling, full curve, poor fit]"

# Two of the compounds above, bar-delimited.
row | Structure (SMILES) | AC50
1 | COc1cc(C(=O)N2CCCCCCC2)cc(OC)c1OC | 9.99 µM [rising, full curve, poor fit]
5 | NS(=O)(=O)c1cc2c(cc1Cl)N[C@@H](CC1CCCC1)NS2(=O)=O | 2.39 µM [falling, full curve, poor fit]
